This is one part of the list. Measured potencies and affinities stand elsewhere.
tested on: Acinetobacter baumannii; conditions: Concentration 20 uM; ASSAY_TEST Inhibition of Bacterial Growth; detection method Absorption (OD600); MEDIA CAMHB; plate type 384well; NBS; CORNING #3640; time 18 hr

| SMILES | Inhibition |
| --- | --- |
| CC(C)(C(=O)Nc1ccc(F)cc1)n1cc(-c2ccccc2F)cn1 | 2.99% |
| O=C(C1CCCCC1)N1CC(=O)N2CCc3ccccc3C2C1 (centres undefined) [PRAZIQUANTEL] | 8.03% |
| C[C@]1(O)C[C@@H](c2nc(-c3ccc4ccc(-c5ccccc5)nc4c3)c3c(N)nccn32)C1 [LINSITINIB] | 1.08% |
| CC1=Nc2ccc(Cl)cc2C(O)(c2ccc(C)cc2)N1CCN1CCCCC1 (centres undefined) | 18.37% |
| Cc1c[nH]c(CCNC(=O)c2cc(-c3ccc(Cl)cc3)cs2)n1 | 12.2% |
| CS(=O)(=O)c1ccccc1C(=O)N(Cc1ccccc1)c1ccccc1 | 7.41% |
| Cc1ccc(Oc2ccc(NC(=O)CNc3ccccc3N3CCCC3=O)cc2)cc1 | -1.28% |
| O=C(Nc1cnc2ccccc2c1)c1cccc(-n2cnnn2)c1 | 9.83% |
| O=C(Nc1nc(-c2ccccn2)cs1)C1CC1c1ccccc1F (centres undefined) | 3.08% |
| CCc1ccc([C@@H]2C[C@H](C(F)(F)F)n3ncc(C(=O)NCc4ccc(OC)cc4)c3N2)cc1 | 6.65% |
| CC(C)(CN)c1nc(-c2ccc(Cl)c(O)c2)c(-c2ccnc(N)n2)[nH]1.O=C(O)C(F)(F)F.O=C(O)C(F)(F)F | 11.71% |
| CCc1nc2ccccc2n1CC(O)COc1cc(C)ccc1Cl (centres undefined) | 9.63% |
| c1ccc(Oc2ccc(-c3cc(CN4CCOCC4)[nH]n3)cc2)cc1 | 5.65% |
| Cc1ccc2oc(-c3cc(NC(=O)Cc4ccccc4)ccc3Cl)nc2c1 | 11.57% |
| COc1ccc(CCN2CCC(NCc3cccc(N(C)C)c3)CC2)cc1 | 7.23% |
| Cc1nc2ccccn2c1C(=O)NCc1ccc(Cl)cc1 | 7.73% |
| Cc1cc(C(=O)Nc2ccc(-c3ccccc3)cc2)no1 | 11.25% |
| CCc1ccc(S(=O)(=O)Nc2cc(CN3CCN(CCC(C)C)CC3)ccc2C)cc1 | 13.11% |
| COC(=O)c1c(NC(=O)c2cc3ccccc3oc2=O)sc2c1CCN(Cc1ccccc1)C2 | -0.26% |
| CCc1ccccc1-n1c(C)cn2c3c(=O)n(C(C(=O)OC)C(C)C)c(=O)n(C)c3nc12 (centres undefined) | 5.63% |

Four compounds already listed, sorted by molecular weight, rising:

| SMILES | Inhibition |
| --- | --- |
| CC(C)(C(=O)Nc1ccc(F)cc1)n1cc(-c2ccccc2F)cn1 | 2.99% |
| Cc1c[nH]c(CCNC(=O)c2cc(-c3ccc(Cl)cc3)cs2)n1 | 12.2% |
| COc1ccc(CCN2CCC(NCc3cccc(N(C)C)c3)CC2)cc1 | 7.23% |
| COC(=O)c1c(NC(=O)c2cc3ccccc3oc2=O)sc2c1CCN(Cc1ccccc1)C2 | -0.26% |

Next structures:

| SMILES | Inhibition |
| --- | --- |
| Cc1[nH]c2cc(F)cc(F)c2c(=O)c1-c1ccc(Oc2ccc(OC(F)(F)F)cc2)cc1 | 8.69% |
| CC(C)(C)c1cnc(NC(=O)c2ccccc2O)s1 | 6.13% |
| NS(=O)(=O)c1cccc(-c2ccc3ncc(N4CCOCC4)nc3c2)c1 | 8.42% |
| CC(C)(C)n1nc(Cc2cccc3ccccc23)c2c(N)ncnc21 | 4.84% |
| COc1ccc(N(CCc2cccc(C)n2)C(C)=O)cc1 | 12.66% |
| COc1cc2ncnc(NC3CCN(Cc4ccccc4)CC3)c2cc1OC | 8.99% |
| FC(F)(F)c1cc(NCCc2ccccc2)nc(-c2ccccn2)n1 | 10.16% |
| Cc1nnc(NCc2cccc(Cl)c2)c2ccccc12 | 12.22% |
| CCc1nc2ccc(Cl)cn2c1C(=O)NCc1ccc(N2CCC(c3ccc(OC(F)(F)F)cc3)CC2)cc1 [TELACEBEC] | 10.44% |
| COc1ccc(N(CCc2cccc(C)n2)C(=O)C2CCCCC2)cc1 | 6.01% |
| Cc1ccc(NC(=O)c2nc[nH]c2C(=O)Nc2nc3ccccc3[nH]2)c(C)c1 | 2.26% |
| CCc1nc2ccc(C(=O)NCc3ccc4c(c3)OCO4)cn2c1N(C)Cc1cccs1 | 7.8% |
| CC(C)(C)n1nc(Cc2ccc(F)c(Cl)c2)c2c(N)ncnc21 | 5.26% |
| Cc1nc(-c2ccccn2)nc(NCCc2ccc(S(C)(=O)=O)cc2)c1Cl | 11.73% |
| O=C(NC1CC1)c1ccc(N2CCOc3ccc(Cl)cc32)s1 | 10.81% |
| COc1ccc2nc(C)cc(OCC(=O)NCc3ccccc3)c2c1 | 10.89% |
| c1coc(CNc2nc(N3CCCCC3)nc3ccccc23)c1 | 7.77% |
| O=C(N[C@H](Cc1ccccc1)C(=O)Nc1ccccc1N1CCOCC1)c1cccs1 | 12.49% |
| Cl.O[C@@H](c1cc(C(F)(F)F)nc2c(C(F)(F)F)cccc12)[C@H]1CCCCN1 | 13.75% |
| O=C1COCc2ccc(Br)cc2N1Cc1ccc(C(F)(F)F)cc1 | 13.16% |

| SMILES | Inhibition |
| --- | --- |
| CC(C)(C)c1cc(C(=O)Nc2cccnc2)cc(C(=O)Nc2cccnc2)c1 | 9.41% |
| Nc1ncnc2c1ncn2C[C@@H](O)[C@@H](O)C(=O)O [ERITADENINE] | 10.49% |
| COCC(C)NC(=O)CSc1ncnc2sc(-c3ccccc3)cc12 (centres undefined) | 8.68% |
| c1ccc(-c2cc(N3CCCCC3)c3ccccc3n2)nc1 | 9.44% |
| O=C(c1ccc(NCCO)cc1)C1C[C@H]1c1ccc(Cl)cc1 (some centres undefined) | 6.14% |
| COc1cccc(CC(=O)N2CCC(n3c(C)nc4ccc(F)cc43)CC2)c1 | 10.01% |
| Nc1nc(N)c2c3c(sc2n1)CN(Cc1ccccc1)CC3 | 8.25% |
| c1ccc(Oc2ccc(-c3cncc(-c4ccc5[nH]ccc5c4)n3)cc2)cc1 | -3.91% |
| COc1cc(C2=NCCN2)ccc1-n1cc(-c2cccc(C3=NCCN3)c2)nn1.O=CO.O=CO | 14.98% |
| COc1ccc(-c2nnc3ccc(-c4cccc(C(C)C)c4)cn23)cc1OC | -4.84% |
| Cc1cc(OCC(=O)Nc2ccc(C(C)C)cc2)n(C)c(=O)c1C#N | -2.1% |
| COC(=O)c1cccc2oc(-c3cccc(OC)c3NC(=O)c3cc(-c4ccccc4)on3)nc12 | 11.12% |
| COc1cc(OC)cc(C(=O)NCC2Cc3cc(Cl)cc(-c4ccncc4)c3O2)c1 (centres undefined) | 4.32% |
| O=C(NCCc1ccccc1)c1cc(-c2cccnc2)cnc1NCC1CC1 | -10.88% |
| Nc1nccc2ccc(Oc3ccncc3)cc12 | 15.12% |
| CCC(NC(=O)c1ccccc1NC(=O)c1ccc(C)cc1)C(=O)OC (centres undefined) | 4.67% |
| O=C(Nc1ccnc(-c2cccnc2)n1)c1cc(C(F)(F)F)cc(C(F)(F)F)c1 | 15.41% |
| NCC(=O)N1CCn2c(nc(-c3ccccc3)c2Nc2ccc3c(c2)OCO3)C1 | 6.29% |
| c1ccc(Oc2ccc(-c3cc(C4CCOCC4)[nH]n3)cc2)cc1 | 4.43% |

Source: ChEMBL document CHEMBL4513149, “CO-ADD screening of MMV (CH) - MMV compounds” (2021)
